Results deposited as PubChem BioAssay AID1224831 (NIAID, 2016)
Test: 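Retesting screen hits on the TLR4-driven TNF response with six separate siRNAs each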 (follow-up of hits). Cells: human THP-1 B5 monocytic leukaemia cells carrying a TNF promoter luciferase reporter, made macrophage-like with PMA. Reagent: single siRNA against human genes, 50 nM. Duration: about 68 h of knock-down, then 4 h LPS. Conditions: LPS (Salmonella minnesota, TLR-grade) at 10 ng/ml for 4 h; PMA 5 ng/ml present during knock-down. Measured: 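TNF promoter reporter read as dual luciferase ratio after 4 h LPS, normalised per plate to its median, given as replicate mean robust z-score per siRNA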. Direction: TNF reporter z-score: higher = stronger LPS-induced TNF reporter signal; z-score, median over gene's siRNAs: higher = stronger TNF reporter signal across the gene's siRNAs. Hit rule: 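Active when the replicate mean z-score is about -1 or lower, or about 1.5 or higher; lowered and raised TNF reporter signal both count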. Calls: active = changed TNF reporter (either direction); inactive = little change.
In all, the deposit lists about 3,500 reagents; below is a random part of them. Of all reagents, 731 (21%) got an active call. 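Active means either lowered or raised reporter signal; the gene-median score did not drive the per-siRNA calls.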 Entries without a mark were called inactive. Reagents against one gene are numbered here.

| gene knocked down | siRNA no. | TNF reporter z-score, replicate mean | z-score, median over gene's siRNAs |
| --- | --- | --- | --- |
| KIR2DL5A (GeneID 57292) | 1 | 0.74 | 0.045 |
| KIR2DL5A (GeneID 57292) | 2 | -0.05 | 0.045 |
| KIR2DL5A (GeneID 57292) | 3 | 0.42 | 0.045 |
| KIR2DL5A (GeneID 57292) | 4 | 0.08 | 0.045 |
| KIR2DL5A (GeneID 57292) | 5 | -0.69 | 0.045 |
| KIR2DL5A (GeneID 57292) | 6 | 0.01 | 0.045 |
| IAH1 (GeneID 285148) | 1 | 0.01 | -0.48 |
| IAH1 (GeneID 285148) | 2 | -0.65 | -0.48 |
| IAH1 (GeneID 285148) | 3 | 0.09 | -0.48 |
| IAH1 (GeneID 285148) | 4 | -0.51 | -0.48 |
| IAH1 (GeneID 285148) | 5 | -0.45 | -0.48 |
| IAH1 (GeneID 285148) | 6 | -0.81 | -0.48 |
| LHX2 (GeneID 9355) | 1 | 0.77 | 0.24 |
| LHX2 (GeneID 9355) | 2 | 0.23 | 0.24 |
| LHX2 (GeneID 9355) | 3 | -0.83 | 0.24 |
| LHX2 (GeneID 9355) | 4 | 5.03 (active) | 0.24 |
| LHX2 (GeneID 9355) | 5 | -0.28 | 0.24 |
| LHX2 (GeneID 9355) | 6 | 0.25 | 0.24 |
| SMARCE1 (GeneID 6605) | 1 | 0.35 | 0.495 |
| SMARCE1 (GeneID 6605) | 2 | 0.92 | 0.495 |
| SMARCE1 (GeneID 6605) | 3 | 0.32 | 0.495 |
| SMARCE1 (GeneID 6605) | 4 | -0.9 | 0.495 |
| SMARCE1 (GeneID 6605) | 5 | 0.9 | 0.495 |
| SMARCE1 (GeneID 6605) | 6 | 0.64 | 0.495 |
| NRBP2 (GeneID 340371) | 1 | 0.17 | -0.02 |
| NRBP2 (GeneID 340371) | 2 | -0.21 | -0.02 |
| NRBP2 (GeneID 340371) | 3 | -1.77 (active) | -0.02 |
| NRBP2 (GeneID 340371) | 4 | 0.86 | -0.02 |
| NRBP2 (GeneID 340371) | 5 | -0.73 | -0.02 |
| NRBP2 (GeneID 340371) | 6 | 2.13 (active) | -0.02 |
| SOBP (GeneID 55084) | 1 | 1.01 | 0.22 |
| SOBP (GeneID 55084) | 2 | -1.47 (active) | 0.22 |
| SOBP (GeneID 55084) | 3 | 0.25 | 0.22 |
| SOBP (GeneID 55084) | 4 | 0.12 | 0.22 |
| SOBP (GeneID 55084) | 5 | 0.9 | 0.22 |
| SOBP (GeneID 55084) | 6 | 0.19 | 0.22 |
| C8orf74 (GeneID 203076) | 1 | 0.6 | 0.27 |
| C8orf74 (GeneID 203076) | 2 | -0.67 | 0.27 |
| C8orf74 (GeneID 203076) | 3 | 0.54 | 0.27 |
| C8orf74 (GeneID 203076) | 4 | -0.38 | 0.27 |
| C8orf74 (GeneID 203076) | 5 | 0.14 | 0.27 |
| C8orf74 (GeneID 203076) | 6 | 0.4 | 0.27 |
| CCDC12 (GeneID 151903) | 1 | 0.34 | 0.285 |
| CCDC12 (GeneID 151903) | 2 | 0.23 | 0.285 |
| CCDC12 (GeneID 151903) | 3 | -0.45 | 0.285 |
| CCDC12 (GeneID 151903) | 4 | -0.06 | 0.285 |
| CCDC12 (GeneID 151903) | 5 | 0.7 | 0.285 |
| CCDC12 (GeneID 151903) | 6 | 1.45 | 0.285 |
| TCN1 (GeneID 6947) | 1 | 2.33 (active) | 0.855 |
| TCN1 (GeneID 6947) | 2 | -0.12 | 0.855 |
| TCN1 (GeneID 6947) | 3 | -1.09 (active) | 0.855 |
| TCN1 (GeneID 6947) | 4 | 3.98 (active) | 0.855 |
| TCN1 (GeneID 6947) | 5 | 0.31 | 0.855 |
| TCN1 (GeneID 6947) | 6 | 1.4 | 0.855 |
| EFS (GeneID 10278) | 1 | 0.76 | -0.015 |
| EFS (GeneID 10278) | 2 | -0.76 | -0.015 |
| EFS (GeneID 10278) | 3 | 0.2 | -0.015 |
| EFS (GeneID 10278) | 4 | 3.16 (active) | -0.015 |
| EFS (GeneID 10278) | 5 | -0.23 | -0.015 |
| EFS (GeneID 10278) | 6 | -0.65 | -0.015 |

Targets above whose target name begins with I or i (6):
| gene knocked down | siRNA no. | TNF reporter z-score, replicate mean | z-score, median over gene's siRNAs |
| --- | --- | --- | --- |
| IAH1 (GeneID 285148) | 1 | 0.01 | -0.48 |
| IAH1 (GeneID 285148) | 2 | -0.65 | -0.48 |
| IAH1 (GeneID 285148) | 3 | 0.09 | -0.48 |
| IAH1 (GeneID 285148) | 4 | -0.51 | -0.48 |
| IAH1 (GeneID 285148) | 5 | -0.45 | -0.48 |
| IAH1 (GeneID 285148) | 6 | -0.81 | -0.48 |
